Test results: PMC5596341
No constants are given. Whether binding was seen depends on the method and setting. In cells and extracts the contact can be indirect. Binding calls can cover weak binding; strength is not graded here. For some of these results: Tags and fused reporters may be left off the sequences shown.

T1: PspB-3×FLAG (Y. enterocolitica)
T1 sequence: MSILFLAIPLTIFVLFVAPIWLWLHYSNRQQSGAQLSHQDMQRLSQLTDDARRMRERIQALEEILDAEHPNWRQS

B1: PspB (protein, UniProt A0ACH1C6W1 1-75)
chain: T1 sequence
B2: PilQ-His6 (protein, UniProt P34750 25-714)
chain: DLEKLDVAALPGDRVELKLQFDEPVAAPRGYTIEQPARIALDLPGVQNKLGTKNRELSVGNTRSVTVVEAKDRTRLIINLTALSSYTTRVEGNNLFVVVGNSPAGASVASAAPVKASPAPASYAQPIKPKPYVPAGRAIRNIDFQRGEKGEGNVVIDLSDPTLSPDIQEQGGKIRLDFAKTQLPDALRVRLDVKDFATPVQFVNASAQSDRTSITIEPSGLYDYLVYQTDNRLTVSIKPMTTEDAERRKKDNFAYTGEKLSLNFQDIDVRSVLQLIADFTDLNLVASDTVQGNITLRLQNVPWDQALDLVLKTKGLDKRKLGNVLLVAPADEIAARERQELEAQKQIAELAPLRRELIQVNYAKAADIAKLFQSVTSDGGQEGKEGGRGSITVDDRTNSIIAYQPQERLDELRRIVSQLDIPVRQVMIEARIVEANVGYDKSLGVRWGGAYHKGNWSGYGKDGNIGIKDEDGMNCGPIAGSCTFPTTGTSKSPSPFVDLGAKDATSGIGIGFITDNIILDLQLSAMEKTGNGEIVSQPKVVTSDKETAKILKGSEVPYQEASSSGATSTSFKEAALSLEVTPQITPDNRIIVEVKVTKDAPDYQNMLNGVPPINKNEVNAKILVNDGETIVIGGVFSNEQSKSVEKVPFLGELPYLGRLFRRDTVTDRKNELLVFLTPRIMNNQAIAIGR

Tests used:
Experiment in all cases: co-IP; anti-FLAG M2 antibody on protein A-Sepharose; membrane fraction of Y. enterocolitica solubilised with 1% DDM in 50 mM Tris-HCl pH 7.5, 300 mM NaCl, 5 mM EDTA; 4°C overnight; native conditions; immunoblot; strains with the pspA operon under tacp or its native promoter
[1] = biological target: T1, PspB-3×FLAG (Y. enterocolitica)
[2] = biological target: YsaC-3×FLAG (Y. enterocolitica)
[3] = biological target: PspC-3×FLAG (Y. enterocolitica)

Molecule | binding [1] | binding [2] | binding [3]
YsaC-His6 (Y. enterocolitica) | binds |  | 
pIV-His6 mutant isolate 104 (K419I) (E. coli filamentous phage f1) | no binding |  | 
PspC (from UniProt A0ACH1C6X0) | binds |  | 
pIV-His6 (E. coli filamentous phage f1) | binds |  | 
B1 |  | binds | binds
B2 |  |  | no binding
